This is one part of the list. These are raw signals, not scaled to a control.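 Primary screen: polymyxin B was added at a level permeabilizing Salmonella outer membranes while sparing inner membranes. DMSO wells, both with and without polymyxin B, established maximum growth. Plate-to-plate variation meant each plate was ranked on its own, and the lowest-OD600 compounds were selected as hits.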
Test system: Salmonella enterica serovar Typhimurium SL1344
Assay: bacterial growth OD600 after 18 h with compound and polymyxin B; higher = more bacterial growth (less inhibition)
Settings: 50 µM, Mueller-Hinton broth

Row | SMILES | bacterial growth OD600 (polymyxin B 0.75 µg/mL) | bacterial growth OD600 (polymyxin B 1 µg/mL)
1 | CCOC(=O)N1CCN(C(=O)c2ccc(N3CCC(N[C@H]4CCCCNC4=O)CC3)cc2)CC1 | 0.838 | –
2 | Cc1ncc2c(c1CNC(=O)Cc1cccs1)CCN(C(=O)c1ccc(N3CCCC3=O)cc1)C2 | 0.814 | –
3 | CCCn1cc([C@@H]2C[C@H]3CN(Cc4cccc(Cl)c4)C(=O)[C@]34CCCN24)c(C)n1 | 0.687 | –
4 | COc1ccc(CC(=O)Nc2ccc(N3CCC(NCC(C)(C)CO)CC3)cc2)cc1 | 0.877 | –
5 | COC(=O)CN(C)C(=O)CC(c1ccccc1)c1ccc2c(c1)OCO2 (stereo unspecified) | – | 0.691
6 | CN(Cc1ccccc1)c1ncccc1CNC(=O)C[C@@H]1C[C@@H]2C=C[C@H]1C2 | – | 0.493
7 | O=C1CC(NC2CCCC2)CN1Cc1ccccc1C(F)(F)F (stereo unspecified) | – | 0.918
8 | COc1ccc(CN2CCc3c(C(=O)NCc4ccccc4OC)c(OC)cc(=O)n3CC2)cc1C | 0.867 | –
9 | CN(Cc1ccc2nccnc2c1)C(=O)CC1(c2ccc(-c3ccccc3)cc2)CC(=O)N(C)C1=O (stereo unspecified) | 0.001 | –
10 | O=C(CCc1ccco1)N1CCC(C2CCN(c3ncccn3)CC2)C1 (stereo unspecified) | 0.824 | –
11 | COc1cccc(CNC(=O)CCC2CCCN(C(=O)c3ccc(CSC)o3)C2)c1 (stereo unspecified) | – | 0.965
12 | CC(Cc1cnccn1)NC(=O)c1coc(COc2ccccc2)n1 (stereo unspecified) | – | 0.922
13 | CCOC(=O)N1CCN(C(=O)c2cc(NC(=O)CC)cc3nc(Cc4ccccc4)n(C)c23)CC1 | 0.834 | –
14 | CSc1ncc(CN2CCCC(CCC(=O)Nc3ccccc3F)C2)cn1 (stereo unspecified) | – | 0.856
15 | O=C1CCC(CCC(=O)N2CCC(C(O)(c3ccccc3)c3ccccc3)CC2)(Cc2ccccc2)N1 (stereo unspecified) | 0.95 | –
16 | O=C(c1ccncc1)N1CCc2onc(-c3ccc4c(c3)OCO4)c2C1 | 0.813 | –

Row | SMILES | bacterial growth OD600 (polymyxin B 0.75 µg/mL) | bacterial growth OD600 (polymyxin B 1 µg/mL)
17 | O=C1O[C@@H]2CN(C3CCOCC3)C[C@@H]2N1CCc1cccc(Cl)c1 | – | 0.889
18 | Cc1ccc(C(=O)NCc2c(C)ncc3c2CCN(C(=O)c2ccc(-n4ccnc4)cc2)C3)s1 | 0.859 | –
19 | COc1ccccc1CN1CC(C(=O)N2CCC(c3ccncc3)CC2)CCC1=O (stereo unspecified) | – | 0.939
20 | C=CCS(=O)(=O)N1C[C@H]2OC(=O)N(CCc3cccc(Cl)c3)[C@H]2C1 | – | 0.904
21 | COc1ccc(N2CCN(C3CCCN(C/C=C/c4ccccc4OC)C3)CC2)cc1 (stereo unspecified) | – | 1.22
22 | COC1CCN(c2ccc(C(=O)N3CCC(CCn4cccn4)CC3)cn2)CC1 | – | 0.959
23 | O=C(CN1CCCCCC1)NCc1cccnc1Oc1ccc(F)cc1F | – | 1
24 | CCCCN(Cc1ccccc1)Cc1c[nH]nc1-c1ccc(OC)cc1OC | – | 1.24
25 | CN(CC1CCOCC1)C(=O)c1csc2nc(-c3cccc(F)c3)cn12 | – | 1.11
26 | COCC(C)NC(=O)C1CCN(C2CCN(CCCc3ccccc3)CC2)CC1 (stereo unspecified) | 1.02 | –
27 | CCNC(=O)NCc1cccnc1N1CCc2ccccc2C1 | – | 0.925
28 | COC(C(=O)Nc1ccnn1C1CCN(C(C)C)CC1)c1ccccc1 (stereo unspecified) | 0.831 | –
29 | COCCNC(=O)c1ccc(OC)cc1OC1CCN(Cc2cnc(N(C)C)s2)CC1 | 0.835 | –
30 | CCc1cc(CNC(=O)c2cc(Cn3cnc4ccccc43)[nH]n2)on1 | – | 1.04
31 | COc1ccc(C(=O)NCc2cccnc2N2CCN(C)CC2)c(OC)n1 | 0.949 | –

Single records (already shown).
CC(Cc1cnccn1)NC(=O)c1coc(COc2ccccc2)n1 (stereo unspecified) in the list: bacterial growth OD600 (polymyxin B 1 µg/mL): 0.922
COc1ccc(CC(=O)Nc2ccc(N3CCC(NCC(C)(C)CO)CC3)cc2)cc1 in the list: bacterial growth OD600 (polymyxin B 0.75 µg/mL): 0.877
